# Experimental data as given in PubChem BioAssay AID493014 (National Center for Advancing Translational Sciences (NCATS), 2011).
# The other results are listed elsewhere or left out. Shown are side measurements of this screen, not its main read-out; they come without a call. Compounds called inactive in the main read-out are mostly missing here. Words in brackets tell the shape of the fitted curve; partial curves, single points and poor fits give uncertain potencies.
# Experiment: qHTS Assay to Find Inhibitors of Chronic Active B-Cell Receptor Signaling
# Settings: ABC-DLBCL IkBa-CBG/CBR reporter, luminescence ratio (green luciferase fused to IkBa over red control in TMD8 lymphoma cells), 4 h
# In short: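 Concentration-response series (up to 46 uM) were applied to TMD8 dual-reporter cells for 4 h at 37C with doxycycline. Green/red ratio, after filter-overlap correction, defined %Activity; red signal alone was normalised to basal cells and zero luminescence.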
# [1] = measured here: CBR red luminescence, cell number
# [2] = measured here: IkBa-CBG green luminescence
SMILES,AC50 [1],AC50 [2]
COc1ccc2c(C(=O)CN3CCC(C)CC3)c[nH]c2c1,"29.1 µM [rising, single point]",
COc1cccc(-n2nc(-c3ccnn3-c3ccc(F)cc3)c(=O)n(C)c2=O)c1,"0.651 µM [falling, partial curve, poor fit]",
O=C(/C=C/Nc1ccc(Oc2ccccc2)cc1)c1ccco1,"3.16 µM [rising, partial curve, poor fit]",
O=C(O)c1nc(-c2ccccc2)n(-c2ccc(Cl)cc2)n1,"5.62 µM [falling, single point]",
CCN(Cc1cc(=O)n2ccsc2n1)Cc1nc2ccccc2c(=O)[nH]1,"35.5 µM [rising, single point]",
CC(C)S(=O)(=O)C1=NSC2=NC(=O)/C(=C\c3ccc(-c4cccc(C(=O)O)c4)o3)C(=N)N21,"7.94 µM [falling, partial curve, poor fit]",
Cc1ccccc1N1CC(c2nc3ccccc3[nH]2)CC1=O (stereo unspecified),"2.31 µM [rising, partial curve, poor fit]",
COC(=O)c1ccc(-c2ccc(/C=N/NC(=O)CC3(C)OCCCO3)o2)cc1,"35.5 µM [falling, single point]",
Cc1ccc(NC(=O)C2C3C=CC4(CN(Cc5cccnc5)C(=O)C24)O3)cc1F (stereo unspecified),"16.4 µM [rising, partial curve, poor fit]",
COc1cccc(C(=O)NCC(=O)N/N=C/c2c(C)[nH]c3ccccc23)c1,"5.01 µM [falling, partial curve, poor fit]",
Cc1ccc(C(=O)CSc2nnc(-c3ccc4[nH]c(C)c(C)c4c3)o2)cc1C,"1.64 µM [falling, partial curve, poor fit]",
Cc1noc(C)c1COC(=O)c1cccc(S(=O)(=O)N2CCCCCC2)c1,"0.631 µM [falling, partial curve, poor fit]",
CN(c1ccccc1)S(=O)(=O)c1cc(Cl)ccc1Cl,"35.5 µM [rising, single point]",
O=C(Cc1ccccc1F)Nc1cc(S(=O)(=O)N2CCOCC2)ccc1N1CCCC1,"1.84 µM [rising, full curve, poor fit]",
O=C(CCCc1nc(-c2ccccc2Cl)no1)NCc1cccnc1,"12.6 µM [rising, partial curve, poor fit]",
CC(=O)NC(c1ccco1)c1cc(Br)c2cccnc2c1O (stereo unspecified),"20.6 µM [falling, single point]",
CCC(=O)Nc1cccc2c1C(=O)N(C)C2=O,"9.2 µM [falling, partial curve, poor fit]",
O=C(NC(=S)N1CCN(c2nc(-c3ccccc3)cs2)CC1)c1cccnc1,"29.1 µM [rising, single point]","16.4 µM [falling, single point]"
CCCCC(=O)c1c(O)c2ccccc2oc1=O,"3.55 µM [falling, partial curve]",
CCN(CC)S(=O)(=O)c1cccc(NC(=O)CCNC(=O)NC23CC4CC(CC(C4)C2)C3)c1,"0.092 µM [rising, full curve, poor fit]",
O=C(Nc1ccc2c(c1)oc1ccccc12)c1ccncc1,"14.1 µM [falling, single point]",

# Copied from the entries so far (two entries):
SMILES,AC50 [1],AC50 [2]
Cc1noc(C)c1COC(=O)c1cccc(S(=O)(=O)N2CCCCCC2)c1,"0.631 µM [falling, partial curve, poor fit]",
CN(c1ccccc1)S(=O)(=O)c1cc(Cl)ccc1Cl,"35.5 µM [rising, single point]",

# (listing goes on)

SMILES,AC50 [1],AC50 [2]
CCOC(=O)C1CCN(c2ncnc3c2c(-c2ccccc2)cn3-c2ccc(C)cc2)CC1,"35.5 µM [rising, single point]",
CCOC(=O)c1ccc(NC(=O)CSc2nccn2C)cc1,"16.4 µM [falling, single point]",
O=C(Nc1ccc(Cl)c(Cl)c1)c1ccc2c(c1)OCO2,"28.2 µM [falling, single point]",
COCCNC(=O)c1cc2c(=O)[nH]c3ccccc3c2s1,"28.2 µM [falling, single point]",
Cc1ccc(NC(=O)COC(=O)Cc2csc(-c3ccc(Cl)cc3)n2)cc1C,"4.11 µM [rising, full curve]",
O=C(/C=C/c1ccccc1Cl)OCC(=O)N1CCCC1,"29.1 µM [falling, single point]",
CCOC(=O)CSc1nnc(NC(=O)c2cccc([N+](=O)[O-])c2)s1,"0.13 µM [falling, full curve]","32.6 µM [rising, partial curve, poor fit]"
CC(C)CC(=O)NC(c1ccccc1Cl)c1c(O)ccc2ccccc12 (stereo unspecified),"11.6 µM [falling, partial curve]",
Cc1ccc(N2CC(C(=O)OCc3ccccc3F)CC2=O)cc1 (stereo unspecified),"1.3 µM [rising, full curve, poor fit]",
C[C@H](CO)N1C[C@H](C)[C@@H](CN(C)S(=O)(=O)c2cccs2)Oc2ccc(NS(=O)(=O)c3ccccc3)cc2C1=O,"3.66 µM [rising, full curve]",
Cc1ccc(CNC(=O)c2ccc(COc3ccccc3)cc2)cc1,"11.6 µM [rising, partial curve, poor fit]",
CC(=O)c1ccc(NC(=O)Nc2ccc(Cl)cc2)cc1,"25.9 µM [falling, single point]",
C(=C\c1ccccc1)/C=N/Nc1nc2ccccc2[nH]1,"20.6 µM [falling, partial curve]","18.4 µM [falling, single point]"
Oc1ccc(/C=N\Nc2nncc(-c3ccccc3)n2)cc1,"7.94 µM [falling, partial curve]",
Cc1ccc(S(=O)(=O)N2[C@@H](c3ccc(C(C)(C)C)cc3)C(C(=O)O)=CC[C@H]2c2ccc(C(C)C)cc2)cc1,"2.06 µM [rising, partial curve, poor fit]",
O=C1OCCC1Sc1nnc(-c2ccc(O)cc2)o1 (stereo unspecified),"11.2 µM [falling, partial curve, poor fit]",
CCOC(=O)C1CCCN(C(=O)CSc2nnnn2C)C1 (stereo unspecified),"25.9 µM [rising, single point]",
C[C@H](NC(=O)C1CCN(S(=O)(=O)c2ccccc2)CC1)C(=O)NCc1ccc(Cl)c(Cl)c1,"12.6 µM [falling, single point]",
CCOc1cc(-c2nc3ccccn3c2NCC2CCCO2)ccc1O (stereo unspecified),"0.651 µM [falling, partial curve, poor fit]",
CCc1cccc(NC(=O)Cn2cc3c(n2)CCCC3)c1,"29.1 µM [rising, partial curve, poor fit]",
CCc1nc2sc3ccccc3c(=O)c2c(=O)n1Cc1ccco1,"9.2 µM [falling, partial curve, poor fit]",

SMILES,AC50 [1],AC50 [2]
COC(=O)CCCNc1ncccc1[N+](=O)[O-],"35.5 µM [rising, single point]",
COc1ccc2nc(NC(=O)CSc3nc(SC)ns3)sc2c1,"0.184 µM [rising, full curve, poor fit]",
O=C1C=CC(=O)N1c1ccc(O)cc1,"12.6 µM [falling, partial curve]","28.2 µM [rising, partial curve, poor fit]"
CC1=C(C)CC(C(=O)NNC(=O)c2csc(C)c2C)C(C(=O)O)C1 (stereo unspecified),"4.61 µM [falling, partial curve]",
COc1ccccc1C(=O)NCCCNc1ccc([N+](=O)[O-])cc1,"0.184 µM [rising, full curve, poor fit]",
COc1cc(/C=C/C(=O)c2ccc(NS(=O)(=O)c3ccc(C)cc3)cc2)cc(OC)c1O,"25.9 µM [falling, single point]",
O=C(N/N=C/c1sc(N2CCOCC2)nc1-c1ccccc1)c1cccc(S(=O)(=O)N2CCOCC2)c1,"1.26 µM [rising, full curve, poor fit]",
CCOc1cc(/C=N/N2C(=O)NC3(CCCCC3)C2=O)cc(Br)c1O,"20 µM [rising, single point]",
CC(c1ccco1)N(C(=O)c1ccccc1NS(=O)(=O)c1cccc([N+](=O)[O-])c1)c1ccccn1 (stereo unspecified),"29.1 µM [rising, single point]",
CCCC(=O)NC(c1ccccc1)c1ccc2cccnc2c1O (stereo unspecified),"17.8 µM [falling, partial curve, poor fit]",
c1ccc(Sc2ncnc3ccccc23)cc1,"3.16 µM [falling, partial curve, poor fit]",
COc1ccc(Cl)cc1NC(=O)CN(C)C(=O)c1cc2ccccc2cc1O,"29.1 µM [falling, single point]",
CN(CC(=O)Nc1ccccc1Br)c1ncnc2sccc12,"3.98 µM [rising, full curve, poor fit]",
NC(=O)COC(=O)c1ccc(Cl)c(S(=O)(=O)N(Cc2ccccc2)c2ccc(Cl)cc2)c1,"20.6 µM [falling, partial curve]",
Cc1ccc(C2CC(=O)Oc3cc(O)ccc32)cc1 (stereo unspecified),"0.103 µM [rising, full curve, poor fit]",
N#CCCN(C(=O)Nc1ccccc1)c1ccccc1,"0.517 µM [rising, full curve, poor fit]",
COc1cc2c(cc1OC)-c1cc(NC3CCCCCC3)nc(=O)n1CC2,,"5.01 µM [falling, partial curve]"
Cc1ccsc1/C=N/NC(=O)c1ccc2ccccc2c1,"11.2 µM [falling, partial curve]",
COc1ccccc1C(=O)NC1CCCCCCC1,"10.3 µM [rising, partial curve, poor fit]",
COc1ccc(S(=O)(=O)N2CCCCCC2)cc1C(=O)N(C)CC(=O)Nc1ccc(Cl)c(Cl)c1,"29.1 µM [falling, single point]",
